Test results: patent EP0468448B1, “Analogs of hirudin having antiplatelet activity” (MERRELL PHARMACEUTICALS INC., priority 1990, dated 1992)
At least one structure is not confirmed: it was looked up by name or label, or the drawing left a doubt. Square brackets hold non-standard residues; d marks the D form. Peptide text beside a SMILES is read from it. Cha = N[C@@H](CC1CCCCC1)C(=O)O; Ava = NCCCCC(=O)O

Molecular target: thrombin (Bos taurus, UniProt P00735)
Assay type: biochemical
Details: bovine; read-out: Bovine Antithrombin IC₅₀

CC[C@H](C)[C@H](NC(=O)[C@H](CCC(=O)O)NC(=O)[C@H](CCC(=O)O)NC(=O)[C@H](Cc1c[nH]c2ccccc12)NC(=O)[C@H](CC(=O)O)NC(=O)CNC(=O)CCCCN)C(=O)N1CCC[C@H]1C(=O)N[C@@H](CCC(=O)O)C(=O)N[C@@H](CCC(=O)O)C(=O)N[C@@H](C)C(=O)N[C@@H](CC1CCCCC1)C(=O)N[C@H](CCC(=O)O)C(=O)O [Example 2] (H-[Ava]GDWEEIPEEA[Cha][dE]-OH)
IC50: 1700 nM
